This is one part of the list.
Legend:
Experiment in all cases: log2 fold change, soluble protein after heating vs DMSO (PISA); higher = thermal stabilisation; K562 cells, 10 uM, 30 min; active = over 0.2 and 3.5 SD of the protein, either way, in both replicates (recomputed)
erlotinib = compound: C#Cc1cccc(Nc2ncnc3cc(OCCOC)c(OCCOC)cc23)c1 [erlotinib]
Summary of the method: (§1)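 Quantification of soluble protein used TMTpro 16plex LC-MS/MS, with channel sums equalised. Samples were the supernatant after 21,000xg for 90 min of pooled aliquots from K562 cells (2×10^6 cells/mL) treated with 10 μM compound for 30 min, heated for 3 min over 48°C-58°C, and extracted in PBS with 0.5% NP-40 at 4°C. Values, from duplicates, describe thermal stability against control samples on a log2 fold-change scale.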

The chains behind the UniProt entries cited, without tags or fusion partners. Where a name states a change or a piece, a line headed by the entry shows the natural chain unless it says otherwise.
UniProt P31995: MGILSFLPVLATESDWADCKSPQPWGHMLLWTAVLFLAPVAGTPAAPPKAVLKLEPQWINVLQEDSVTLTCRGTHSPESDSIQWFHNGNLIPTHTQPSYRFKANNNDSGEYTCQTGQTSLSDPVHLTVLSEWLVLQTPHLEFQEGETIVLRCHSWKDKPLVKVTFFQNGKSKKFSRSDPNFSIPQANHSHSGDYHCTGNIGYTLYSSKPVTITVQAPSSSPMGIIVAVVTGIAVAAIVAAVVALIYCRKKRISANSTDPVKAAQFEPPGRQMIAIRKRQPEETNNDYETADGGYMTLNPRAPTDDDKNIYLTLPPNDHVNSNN
UniProt Q8NFZ0: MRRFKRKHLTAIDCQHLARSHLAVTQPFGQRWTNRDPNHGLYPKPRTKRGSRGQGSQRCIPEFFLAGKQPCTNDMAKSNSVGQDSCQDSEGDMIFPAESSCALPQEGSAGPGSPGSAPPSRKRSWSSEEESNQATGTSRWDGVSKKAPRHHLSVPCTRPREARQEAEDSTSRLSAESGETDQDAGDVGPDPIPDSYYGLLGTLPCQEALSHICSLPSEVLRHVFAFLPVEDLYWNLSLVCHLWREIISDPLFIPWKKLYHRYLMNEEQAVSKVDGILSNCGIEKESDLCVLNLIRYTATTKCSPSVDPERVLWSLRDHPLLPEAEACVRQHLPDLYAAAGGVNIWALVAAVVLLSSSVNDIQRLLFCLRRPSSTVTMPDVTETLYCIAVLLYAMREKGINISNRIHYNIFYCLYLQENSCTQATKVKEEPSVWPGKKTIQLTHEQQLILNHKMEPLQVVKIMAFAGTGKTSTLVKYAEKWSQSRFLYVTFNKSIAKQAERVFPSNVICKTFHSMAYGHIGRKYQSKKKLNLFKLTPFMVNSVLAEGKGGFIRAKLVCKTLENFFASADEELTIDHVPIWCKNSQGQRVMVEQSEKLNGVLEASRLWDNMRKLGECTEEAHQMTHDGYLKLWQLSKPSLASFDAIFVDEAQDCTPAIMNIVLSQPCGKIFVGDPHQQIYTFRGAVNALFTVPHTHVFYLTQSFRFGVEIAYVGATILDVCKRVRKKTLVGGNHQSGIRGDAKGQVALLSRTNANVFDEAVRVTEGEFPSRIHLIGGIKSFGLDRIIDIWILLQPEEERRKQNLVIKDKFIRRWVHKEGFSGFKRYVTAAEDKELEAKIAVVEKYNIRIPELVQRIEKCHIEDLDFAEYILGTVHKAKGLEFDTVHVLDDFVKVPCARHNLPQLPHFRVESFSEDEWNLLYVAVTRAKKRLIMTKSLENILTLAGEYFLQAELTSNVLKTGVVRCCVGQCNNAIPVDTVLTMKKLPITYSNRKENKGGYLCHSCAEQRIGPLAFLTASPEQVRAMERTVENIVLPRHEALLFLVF
UniProt Q8N3X1: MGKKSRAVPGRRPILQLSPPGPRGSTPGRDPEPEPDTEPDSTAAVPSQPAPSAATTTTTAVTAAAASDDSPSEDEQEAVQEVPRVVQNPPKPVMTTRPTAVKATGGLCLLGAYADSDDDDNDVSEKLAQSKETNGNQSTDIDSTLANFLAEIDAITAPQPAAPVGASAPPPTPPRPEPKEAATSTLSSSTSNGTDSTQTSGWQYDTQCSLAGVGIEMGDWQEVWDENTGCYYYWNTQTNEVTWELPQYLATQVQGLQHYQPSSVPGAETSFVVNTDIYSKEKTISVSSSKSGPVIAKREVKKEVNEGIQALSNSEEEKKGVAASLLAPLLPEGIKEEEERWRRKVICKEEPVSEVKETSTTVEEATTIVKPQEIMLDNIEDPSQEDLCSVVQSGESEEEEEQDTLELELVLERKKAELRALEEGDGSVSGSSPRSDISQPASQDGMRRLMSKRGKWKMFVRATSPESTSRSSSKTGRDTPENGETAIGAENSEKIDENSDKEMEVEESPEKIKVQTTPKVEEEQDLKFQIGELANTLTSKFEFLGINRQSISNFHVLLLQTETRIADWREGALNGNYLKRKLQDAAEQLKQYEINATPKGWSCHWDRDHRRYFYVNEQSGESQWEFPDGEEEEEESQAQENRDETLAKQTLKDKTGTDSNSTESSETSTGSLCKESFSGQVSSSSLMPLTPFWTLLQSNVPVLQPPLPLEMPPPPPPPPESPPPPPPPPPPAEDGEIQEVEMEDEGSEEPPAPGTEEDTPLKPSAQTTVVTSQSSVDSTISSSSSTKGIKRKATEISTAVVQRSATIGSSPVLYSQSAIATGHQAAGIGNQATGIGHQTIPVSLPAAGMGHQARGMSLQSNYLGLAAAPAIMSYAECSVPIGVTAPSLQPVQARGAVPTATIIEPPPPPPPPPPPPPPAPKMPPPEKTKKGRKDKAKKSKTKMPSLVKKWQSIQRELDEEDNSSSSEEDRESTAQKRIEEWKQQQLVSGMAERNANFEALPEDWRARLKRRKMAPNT
UniProt Q8NB91: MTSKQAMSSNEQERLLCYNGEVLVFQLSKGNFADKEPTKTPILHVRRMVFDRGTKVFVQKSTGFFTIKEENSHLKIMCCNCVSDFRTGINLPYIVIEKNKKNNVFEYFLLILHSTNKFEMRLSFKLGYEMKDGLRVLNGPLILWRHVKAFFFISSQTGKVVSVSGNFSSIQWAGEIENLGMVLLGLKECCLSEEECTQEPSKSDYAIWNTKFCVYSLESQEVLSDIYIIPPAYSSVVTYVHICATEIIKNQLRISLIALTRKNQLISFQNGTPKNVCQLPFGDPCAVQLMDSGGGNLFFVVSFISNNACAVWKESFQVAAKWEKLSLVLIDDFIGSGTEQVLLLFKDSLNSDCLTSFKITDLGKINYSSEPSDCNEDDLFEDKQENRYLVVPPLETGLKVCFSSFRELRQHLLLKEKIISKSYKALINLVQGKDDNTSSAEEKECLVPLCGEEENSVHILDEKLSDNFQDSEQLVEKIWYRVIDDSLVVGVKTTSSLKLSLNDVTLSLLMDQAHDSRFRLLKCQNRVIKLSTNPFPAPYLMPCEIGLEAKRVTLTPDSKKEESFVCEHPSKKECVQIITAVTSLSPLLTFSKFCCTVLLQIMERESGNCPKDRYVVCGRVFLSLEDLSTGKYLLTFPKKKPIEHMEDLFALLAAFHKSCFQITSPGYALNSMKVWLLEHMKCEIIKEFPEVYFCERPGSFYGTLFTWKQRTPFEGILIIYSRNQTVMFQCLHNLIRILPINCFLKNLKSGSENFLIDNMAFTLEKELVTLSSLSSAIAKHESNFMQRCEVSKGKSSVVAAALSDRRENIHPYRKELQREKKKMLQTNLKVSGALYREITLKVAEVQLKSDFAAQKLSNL
UniProt Q13643: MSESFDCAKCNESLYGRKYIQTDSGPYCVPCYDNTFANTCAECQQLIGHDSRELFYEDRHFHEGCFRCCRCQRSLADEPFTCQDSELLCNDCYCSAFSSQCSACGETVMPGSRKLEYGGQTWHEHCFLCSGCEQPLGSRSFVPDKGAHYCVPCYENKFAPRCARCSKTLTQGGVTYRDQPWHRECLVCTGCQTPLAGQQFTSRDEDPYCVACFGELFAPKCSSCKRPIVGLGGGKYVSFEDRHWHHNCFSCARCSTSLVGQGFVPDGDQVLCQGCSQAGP
UniProt Q96IG2: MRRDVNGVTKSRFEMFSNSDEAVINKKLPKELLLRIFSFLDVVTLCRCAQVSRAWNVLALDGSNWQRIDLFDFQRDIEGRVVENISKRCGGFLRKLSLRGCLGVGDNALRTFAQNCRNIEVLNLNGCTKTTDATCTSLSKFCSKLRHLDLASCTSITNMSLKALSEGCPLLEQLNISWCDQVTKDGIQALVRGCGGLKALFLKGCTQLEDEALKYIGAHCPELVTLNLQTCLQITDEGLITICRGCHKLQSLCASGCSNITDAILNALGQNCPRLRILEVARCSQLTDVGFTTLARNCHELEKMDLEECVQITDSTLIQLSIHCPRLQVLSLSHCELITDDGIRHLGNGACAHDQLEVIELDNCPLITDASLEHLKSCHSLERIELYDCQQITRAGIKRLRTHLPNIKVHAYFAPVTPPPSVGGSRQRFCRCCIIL
UniProt Q5HYJ3: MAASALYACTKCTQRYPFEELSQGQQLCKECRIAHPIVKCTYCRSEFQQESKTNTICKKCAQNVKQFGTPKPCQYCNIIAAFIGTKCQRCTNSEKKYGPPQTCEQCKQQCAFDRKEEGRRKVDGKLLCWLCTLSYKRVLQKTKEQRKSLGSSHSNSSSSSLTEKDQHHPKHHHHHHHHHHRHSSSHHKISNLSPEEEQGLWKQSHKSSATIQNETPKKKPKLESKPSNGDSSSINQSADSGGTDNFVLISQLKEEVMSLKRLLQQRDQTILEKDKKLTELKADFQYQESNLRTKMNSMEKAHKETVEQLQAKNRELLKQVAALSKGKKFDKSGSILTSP
UniProt Q02790: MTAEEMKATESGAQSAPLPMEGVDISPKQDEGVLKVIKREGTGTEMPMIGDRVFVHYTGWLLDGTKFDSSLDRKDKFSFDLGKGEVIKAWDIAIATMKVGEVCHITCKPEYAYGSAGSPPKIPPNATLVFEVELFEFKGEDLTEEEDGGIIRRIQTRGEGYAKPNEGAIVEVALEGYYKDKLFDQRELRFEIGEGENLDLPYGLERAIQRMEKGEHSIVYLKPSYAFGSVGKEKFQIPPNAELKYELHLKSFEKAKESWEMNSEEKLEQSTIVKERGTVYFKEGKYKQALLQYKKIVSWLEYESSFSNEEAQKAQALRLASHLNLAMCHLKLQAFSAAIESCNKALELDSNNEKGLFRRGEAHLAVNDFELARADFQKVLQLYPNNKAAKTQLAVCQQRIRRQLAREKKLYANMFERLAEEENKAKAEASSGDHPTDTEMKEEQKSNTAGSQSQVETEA
UniProt P14324: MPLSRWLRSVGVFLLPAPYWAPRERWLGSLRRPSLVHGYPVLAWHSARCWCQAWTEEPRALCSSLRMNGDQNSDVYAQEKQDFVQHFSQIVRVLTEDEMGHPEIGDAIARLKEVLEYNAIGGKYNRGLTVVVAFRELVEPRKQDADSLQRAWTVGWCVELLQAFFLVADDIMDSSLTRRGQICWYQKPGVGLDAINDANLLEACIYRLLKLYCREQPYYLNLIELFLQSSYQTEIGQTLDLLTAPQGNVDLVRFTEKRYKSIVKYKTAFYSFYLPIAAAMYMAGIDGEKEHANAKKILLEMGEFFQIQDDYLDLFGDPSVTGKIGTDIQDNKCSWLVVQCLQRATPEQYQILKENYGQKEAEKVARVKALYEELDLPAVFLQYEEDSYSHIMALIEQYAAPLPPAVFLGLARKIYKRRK
UniProt Q9UKT4: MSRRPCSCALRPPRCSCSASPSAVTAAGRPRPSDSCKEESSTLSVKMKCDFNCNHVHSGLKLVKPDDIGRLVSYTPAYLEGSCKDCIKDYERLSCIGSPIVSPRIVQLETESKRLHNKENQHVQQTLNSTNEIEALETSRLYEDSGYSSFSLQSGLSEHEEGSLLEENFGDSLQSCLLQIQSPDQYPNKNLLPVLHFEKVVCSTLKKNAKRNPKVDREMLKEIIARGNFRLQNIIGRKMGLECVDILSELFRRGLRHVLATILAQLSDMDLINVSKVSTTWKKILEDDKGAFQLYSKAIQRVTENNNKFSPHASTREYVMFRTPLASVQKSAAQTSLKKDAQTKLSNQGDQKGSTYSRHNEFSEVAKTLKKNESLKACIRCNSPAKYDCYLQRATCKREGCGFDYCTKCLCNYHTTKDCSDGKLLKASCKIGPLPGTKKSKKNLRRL
UniProt Q658Y4: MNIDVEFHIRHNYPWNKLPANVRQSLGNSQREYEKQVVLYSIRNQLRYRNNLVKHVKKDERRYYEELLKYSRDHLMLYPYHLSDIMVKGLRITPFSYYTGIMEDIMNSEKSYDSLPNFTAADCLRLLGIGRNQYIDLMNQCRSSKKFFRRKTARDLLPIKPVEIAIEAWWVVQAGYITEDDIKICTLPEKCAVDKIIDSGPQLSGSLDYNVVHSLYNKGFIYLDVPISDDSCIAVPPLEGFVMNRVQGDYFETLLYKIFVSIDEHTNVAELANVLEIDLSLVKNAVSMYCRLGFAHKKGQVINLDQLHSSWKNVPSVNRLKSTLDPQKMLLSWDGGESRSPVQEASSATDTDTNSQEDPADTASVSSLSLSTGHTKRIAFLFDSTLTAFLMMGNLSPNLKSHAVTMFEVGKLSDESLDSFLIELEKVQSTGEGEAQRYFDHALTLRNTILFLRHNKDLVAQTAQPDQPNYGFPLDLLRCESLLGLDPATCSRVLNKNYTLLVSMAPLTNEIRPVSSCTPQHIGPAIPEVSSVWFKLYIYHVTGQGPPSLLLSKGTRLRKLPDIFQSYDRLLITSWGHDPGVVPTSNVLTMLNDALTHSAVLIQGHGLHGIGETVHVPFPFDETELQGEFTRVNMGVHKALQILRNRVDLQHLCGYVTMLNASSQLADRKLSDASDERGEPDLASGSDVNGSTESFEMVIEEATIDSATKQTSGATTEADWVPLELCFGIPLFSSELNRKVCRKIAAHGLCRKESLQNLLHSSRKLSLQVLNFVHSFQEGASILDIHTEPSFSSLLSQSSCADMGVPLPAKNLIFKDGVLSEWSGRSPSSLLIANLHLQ

[1] = compound: C/C(=N\NC(=O)C1=CC(=CC=C1)S(=O)(=O)N2CCOCC2)/C3=C(C=CC(=C3)Cl)O
Summary of the method: as §1

[2] = compound: C1=CC(=C(C=C1Cl)C2=NC3=NC=CN=C3C(=N2)NC4=CC=NC=C4)F
Summary of the method: as §1

[3] = compound: C1=CC(=CC=C1C2=NC3=C(N2)C=C(C=C3)C(=O)N)OC4=CC=C(C=C4)Cl
Summary of the method: as §1

[4] = compound: C1=CC2=C(C=CC(=C2)/C=C\3/C(=O)NC(=NCC4=CC=CS4)S3)N=C1
Summary of the method: as §1

[5] = compound: C1=CC2=NC=CN=C2C=C1/C=C/3\C(=O)NC(=O)S3
Summary of the method: as §1

[6] = compound: C1=CC=C(C=C1)C2=NC(=C(N2)C3=CC=NC=C3)C4=CC(=C(C=C4)Cl)O
Summary of the method: as §1

[7] = compound: C1=CC=C2C(=C1)C3=NNC4=CC=CC(=C43)C2=O
Summary of the method: as §1

[8] = compound: C1CCN(C1)C(=O)NC2=CC=CC(=C2)NC3=NC=C(C(=N3)NCCC4=CN=CN4)Br
Summary of the method: as §1

[9] = compound: C1CN(CCC1(CC2=CC=C(C=C2)Cl)N)C3=NC=NC4=C3C=CN4
Summary of the method: as §1

Row | Target | log2 fold change (erlotinib) | log2 fold change [1] | log2 fold change [2] | log2 fold change [3] | log2 fold change [4] | log2 fold change [5] | log2 fold change [6] | log2 fold change [7] | log2 fold change [8] | log2 fold change [9]
1 | FLAD1 (UniProt Q8NFF5) | inactive: 0.009 | inactive: 0.01 | inactive: 0.065 | inactive: 0.054 | inactive: 0.041 | inactive: -0.02 | inactive: -0.019 | inactive: 0.046 | inactive: 0.008 | inactive: -0.002
2 | FLOT2 (UniProt Q14254) | inactive: -0.052 | inactive: -0.085 | inactive: -0.198 | inactive: -0.029 | inactive: -0.053 | inactive: 0.044 | inactive: -0.015 | inactive: 0.063 | inactive: -0.043 | inactive: -0.095
3 | FBL (UniProt P22087) | inactive: 0.06 | inactive: -0.153 | active: -0.566 | inactive: 0.013 | inactive: -0.102 | inactive: 0.13 | inactive: -0.099 | inactive: -0.091 | inactive: 0.054 | inactive: -0.117
4 | FASTKD5 (UniProt Q7L8L6) | inactive: 0.231 | inactive: -0.042 | inactive: -0.002 | inactive: -0.132 | inactive: 0.278 | inactive: -0.136 | inactive: 0.02 | inactive: -0.101 | inactive: -0.214 | inactive: 0.073
5 | FN3KRP (UniProt Q9HA64) | inactive: -0.019 | inactive: 0.014 | inactive: 0.004 | inactive: 0.007 | inactive: 0.033 | inactive: -0.01 | inactive: -0.027 | inactive: -0.036 | inactive: -0.039 | inactive: 0.05
6 | FCGR2C (UniProt P31995) | inactive: 0.04 | inactive: 0.014 | inactive: 0.046 | inactive: -0.036 | inactive: 0.006 | inactive: 0 | inactive: 0.051 | inactive: -0.03 | inactive: -0.02 | inactive: 0.086
7 | FBH1 isoform 2 (UniProt Q8NFZ0) | inactive: -0.131 | inactive: 0.031 | inactive: 0.033 | inactive: -0.189 | inactive: 0.107 | inactive: -0.003 | inactive: 0.028 | inactive: 0.004 | inactive: -0.007 | inactive: -0.033
8 | FAM98A (UniProt Q8NCA5) | inactive: -0.018 | inactive: -0.102 | inactive: -0.144 | inactive: 0.037 | inactive: -0.035 | inactive: -0.022 | inactive: 0.083 | inactive: 0.067 | inactive: 0.085 | inactive: -0.057
9 | FNBP4 isoform 2 (UniProt Q8N3X1) | inactive: 0.001 | inactive: -0.013 | inactive: -0.03 | inactive: -0.006 | inactive: -0.02 | inactive: 0.05 | inactive: -0.031 | inactive: -0.016 | inactive: 0.002 | inactive: 0.038
10 | FBXO30 (UniProt Q8TB52) | inactive: 0.063 | inactive: 0.02 | inactive: -0.008 | inactive: 0.021 | inactive: 0.04 | inactive: -0.042 | inactive: 0.034 | inactive: 0.06 | inactive: -0.019 | inactive: 0.059
11 | FAM210A (UniProt Q96ND0) | inactive: 0.072 | inactive: -0.054 | inactive: -0.058 | inactive: 0.013 | inactive: 0.012 | inactive: -0.015 | inactive: 0.017 | inactive: -0.008 | inactive: -0.015 | inactive: -0.01
12 | FANCB (UniProt Q8NB91) | inactive: 0.005 | inactive: -0.02 | inactive: 0.056 | inactive: 0.038 | inactive: 0.055 | inactive: -0.007 | inactive: -0.027 | inactive: 0.057 | inactive: -0.054 | inactive: 0.036
13 | FECH isoform 2 (UniProt P22830) | inactive: 0.191 | inactive: -0.179 | inactive: 0.349 | inactive: 0.206 | inactive: 0.162 | inactive: 0.048 | inactive: 0.429 | inactive: 0.135 | inactive: 0.172 | inactive: 0.046
14 | FLVCR1 (UniProt Q9Y5Y0) | inactive: -0.044 | inactive: 0.089 | inactive: 0.025 | inactive: -0.003 | inactive: 0.064 | inactive: 0.024 | inactive: -0.056 | inactive: 0.03 | inactive: -0.04 | inactive: 0.017
15 | FHL3 (UniProt Q13643) | inactive: 0.068 | inactive: 0.014 | inactive: 0.025 | inactive: 0.001 | inactive: 0.007 | inactive: 0.032 | inactive: -0.026 | inactive: -0.029 | inactive: 0.034 | inactive: 0.023
16 | FBXL20 (UniProt Q96IG2) | inactive: 0.085 | inactive: 0.015 | inactive: 0.123 | inactive: -0.078 | inactive: 0.067 | inactive: 0.049 | inactive: 0.123 | inactive: -0.033 | inactive: 0.032 | inactive: 0
17 | FAM76B (UniProt Q5HYJ3) | inactive: -0.042 | inactive: 0.094 | inactive: 0.049 | inactive: -0.016 | inactive: 0.009 | inactive: -0.051 | inactive: -0.322 | inactive: 0.147 | inactive: -0.131 | inactive: -0.08
18 | FKBP9 (UniProt O95302) | inactive: -0.033 | inactive: 0.077 | inactive: -0.026 | inactive: 0.032 | inactive: 0.019 | inactive: -0.002 | inactive: -0.034 | inactive: -0.005 | inactive: 0.045 | inactive: 0.005
19 | FBXO3 (UniProt Q9UK99) | inactive: 0.01 | inactive: 0.044 | inactive: 0.141 | inactive: -0.018 | inactive: -0.038 | inactive: 0.062 | inactive: 0.112 | inactive: -0.003 | inactive: -0.029 | inactive: 0.002
20 | FBXO22 (UniProt Q8NEZ5) | inactive: 0 | inactive: 0.053 | inactive: 0.019 | inactive: 0.014 | inactive: 0.123 | inactive: 0.005 | inactive: 0.012 | inactive: 0.055 | inactive: -0.047 | inactive: -0.006
21 | FKBP4 (UniProt Q02790) | inactive: -0.04 | inactive: 0.07 | inactive: 0.055 | inactive: -0.042 | inactive: 0.017 | inactive: 0.007 | inactive: 0.036 | inactive: 0.047 | inactive: 0.016 | inactive: -0.033
22 | FDPS (UniProt P14324) | inactive: 0.18 | inactive: 0.174 | inactive: -0.022 | inactive: 0.067 | inactive: 0.3 | inactive: -0.026 | inactive: 0.06 | inactive: 0.186 | inactive: 0.006 | inactive: -0.309
23 | FAM50A (UniProt Q14320) | inactive: 0.015 | inactive: 0.051 | inactive: 0.054 | inactive: -0.017 | inactive: -0.009 | inactive: 0.062 | inactive: -0.019 | inactive: -0.001 | inactive: -0.026 | inactive: -0.065
24 | FBXO5 (UniProt Q9UKT4) | inactive: -0.014 | inactive: 0.117 | inactive: 0.003 | inactive: -0.007 | inactive: -0.079 | inactive: 0.086 | inactive: -0.04 | inactive: 0.01 | inactive: 0.008 | inactive: 0.028
25 | FGF13 isoform 3 (UniProt Q92913) | inactive: 0.137 | inactive: 0 | inactive: -0.097 | inactive: -0.017 | inactive: 0.143 | inactive: 0.03 | inactive: -0.001 | inactive: 0.022 | inactive: -0.011 | inactive: -0.037
26 | FAM91A1 (UniProt Q658Y4) | inactive: 0.005 | inactive: 0.019 | inactive: 0.168 | inactive: 0.082 | inactive: 0.019 | inactive: -0.017 | inactive: -0.033 | inactive: 0.069 | inactive: -0.057 | inactive: -0.152
27 | FIP1L1 (UniProt Q6UN15) | inactive: -0.039 | inactive: -0.027 | inactive: -0.067 | inactive: 0.05 | inactive: -0.055 | inactive: 0.076 | inactive: -0.078 | inactive: -0.057 | inactive: 0.008 | inactive: 0.028

Limited to log2 fold change [2] (2 entries from above):
Row	Target	log2 fold change [2]
13	FECH isoform 2 (UniProt P22830)	inactive: 0.349
14	FLVCR1 (UniProt Q9Y5Y0)	inactive: 0.025

— the supplement of paper PMC10849652
